Results are given in words; binding and its absence hold for the method and conditions named. In cells and extracts the contact can be indirect. For part of these data: A result given as binding can be weak or reduced; the word gives no strength. Tags and fused reporters may be left off the sequences shown.
B1: 3×FLAG-tagged Pub3 (enzyme, UniProt O14326 1-786)
chain: MEQGAKRVRFYIVAADGLSKRDLFRQPDPFAILTVDGEQTHTTKVIKKSVNPYWNEGFEVTVKPSSVISIRLFDQKKFKKKDQGFLGLVSFRMREVGSFRSNREVSLTRPLKKSSTTNLSVLGNLVLKVAPSKIRAPAGNHSSTTANRTTSTPTTTTARTTRTTPRPTATTNTSNQSTSNSTRNGTSAATSNGTGTGAGTGASHRSSPVTNRQTNNTSALSNSNAHIMSSFEDQYGRLPPGWERRADSLGRTYYVDHNTRTTTWTRPASSTNPVHNTSSDSQRLNHQNRHLPDDSNPSLMQSDSGNDLPFGWEMRYTDTGRPYFVDHNTRTTTWVDPRNPLVRPNGGSSTVGSLMQPQSLSHLGPLPSGWEMRLTNSARVYFVDHNTKTTTWDDPRLPSALDQDVPQYKCDFRRKLIYFRSQPGMRPLPGQCNVKVRRDHIFEDSYAEIMRYSAHDLKKRLMIRFDGEDGLDYGGLSREFFFLLSHKMFDPIYCLFEYSAVDNYTLQINPHSSINPEHLNYFRFIGRVIGLAIFHRRFLDAFFVVSLYKKLLRKKVSLADMESIDAEFYRSLKWVLENDITGILDLTFSVEEDHFGEVRTVELITNGENIEVTEENKKKYVDLVTEWRVSKRVEQQFNAFYSGFVELVSPDLVNVFDERELELLIGGISDVDVEDWKSHTEYRTYIATDPVIKWFWEIIAGWKNEDRSKLLQFATGTSRIPVNGFRDLQGSDGPRKFTIEKAGTPDQLPVAHTCFNRLDLPDYPSKDTLHEKLSLAVENTVGFGNE
B2: 3×FLAG-tagged Pub2 (enzyme, UniProt Q9UTG2 1-671)
chain: MENIRFEVQLTILHVEGLWKNGLLRSLKPYLLISVDDDQFIKTNVASGTLRLSWGFTQKLTVSPQSIILLQLFDEKQKNETSDGFVGLGAAVVNSFLPFNNPKDDYKTRITLRSPSGSYRGSVVCLFKRSKFLPEELPADKSQICTDIIDDASGCAWETRIDEFGHVYYLKSPQLSVISAISHEKLENLTPKQLKEVFSQFLFNNQSKSSLKINLEYKVIKHLLEHYPLALSVRQQVAVEKGPLPAGWEMRLSEDYHVYFVDHSTKTTTWSDPRDNVVASDSVSENTDSIQQINDEYQRKIAYMYDRPEMAVNDAQLQLKVSRATTFEDAYDIISKLSVSDMKKKLLIRFRNEDGLDYGGVSREFFYILSHAIFNPGYSLFEYATDDNYGLQISPLSSVNPDFRSYFRFVGRVMGLAIYHRRYLDVQFVLPFYKRILQKPLCLEDVKDVDEVYYESLKWIKNNDVDESLCLNFSVEENRFGESVTVDLIPNGRNIAVNNQNKMNYLKALTEHKLVTSTEEQFNALKGGLNELIPDSVLQIFNENELDTLLNGKRDIDVQDWKRFTDYRSYTETDDIVIWFWELLSEWSPEKKAKLLQFATGTSRLPLSGFKDMHGSDGPRKFTIEKVGHISQLPKAHTCFNRLDIPPYNSKEELEQKLTIAIQETAGFGTE

Assays:
[1] = biological target: GST-Cw9a(53-104) (Schizosaccharomyces pombe (natural isolate CBS5557)); assay: pull-down
[2] = biological target: GST-Cw9a(1-104) (Schizosaccharomyces pombe (natural isolate CBS5557)); assay: pull-down
[3] = biological target: GST-tagged Cw9a(1-52) (Schizosaccharomyces pombe (natural isolate CBS5557)); assay: pull-down
[4] = biological target: GST-Cw9a(1-104) PY2* (Schizosaccharomyces pombe (natural isolate CBS5557)); assay: pull-down
[5] = biological target: GST-Cw9a(1-104) PY2*PY3* (Schizosaccharomyces pombe (natural isolate CBS5557)); assay: pull-down
[6] = biological target: GST-Cw9a(24-52) (Schizosaccharomyces pombe (natural isolate CBS5557)); assay: pull-down
[7] = biological target: GST-Cw9a(1-23) (Schizosaccharomyces pombe (natural isolate CBS5557)); assay: pull-down
[8] = biological target: GST-Cw9a(1-104) PY1* (Schizosaccharomyces pombe (natural isolate CBS5557)); assay: pull-down
[9] = biological target: GST-Cw9a(1-104) 3PY* (Schizosaccharomyces pombe (natural isolate CBS5557)); assay: pull-down
[10] = biological target: GST-Cw9a(1-104) PY1*PY2* (Schizosaccharomyces pombe (natural isolate CBS5557)); assay: pull-down
[11] = biological target: GST-Cw9a(1-104) PY1*PY3* (Schizosaccharomyces pombe (natural isolate CBS5557)); assay: pull-down
[12] = biological target: GST-Cw9a(1-104) PY3* (Schizosaccharomyces pombe (natural isolate CBS5557)); assay: pull-down
[13] = biological target: Cw9a (bait of the co-immunoprecipitation in Supplementary Fig. 1h) (Schizosaccharomyces pombe (natural isolate CBS5557)); assay: co-IP

| Binder | binding [1] | binding [2] | binding [3] | binding [4] | binding [5] | binding [6] | binding [7] | binding [8] | binding [9] | binding [10] | binding [11] | binding [12] | binding [13] |
| --- | --- | --- | --- | --- | --- | --- | --- | --- | --- | --- | --- | --- | --- |
| B1 | binds weakly | binds | binds | binds | binds weakly | binds | no binding | binds | no binding | binds weakly | binds | binds | binds |
| B2 | – | – | binds weakly | – | – | – | – | – | – | – | – | – | binds weakly |

Source: doi:10.1101/2023.07.15.549172
